Measured values as given in paper doi:10.1101/2025.06.03.657256 (bioRxiv, 2025).
These are yes or no findings as the source states them, for the method shown. Some entries that bind do so weakly or less than the wild type. For some of these results: Where a sequence is shown, tags or fusion partners need not be part of it. Blank lines part the entries; values can stand above or below the binder they belong to.

Tests used:
1mer[755:] (human) = 1mer[755:] (human) (UniProt Q96Q06); assay: thioflavin T
MBP-4x1mer[260:] (human) [1] = biological target: MBP-4x1mer[260:] (human) (UniProt Q96Q06); assay: negative-stain EM of fibrils
MBP-4x1mer[260:] (human) [2] = biological target: MBP-4x1mer[260:] (human) (UniProt Q96Q06); assay: cryo-EM of fibrils
MBP-4x1mer[260:] (human) [3] = biological target: MBP-4x1mer[260:] (human) (UniProt Q96Q06); assay: thioflavin T
1mer[656:] (human) = 1mer[656:] (human) (UniProt Q96Q06); assay: thioflavin T
MBP-3x1mer[260:] (human) = MBP-3x1mer[260:] (human) (UniProt Q96Q06); assay: negative-stain EM of fibrils
MBP-2x1mer[260:] (human) = MBP-2x1mer[260:] (human) (UniProt Q96Q06); assay: negative-stain EM of fibrils

B1: 4x1mer[260:] released from MBP-4x1mer[260:] by TEV protease (domain or fragment, human, UniProt Q96Q06 260-292, looked up)
chain: SKTVLTGTKDTVCSGVTGAMNVAKGTIQTGVDTSKTVLTGTKDTVCSGVTGAMNVAKGTIQTGVDTSKTVLTGTKDTVCSGVTGAMNVAKGTIQTGVDTSKTVLTGTKDTVCSGVTGAMNVAKGTIQTGVDT
binding (MBP-4x1mer[260:] (human) [1]): binds
binding (MBP-4x1mer[260:] (human) [2]): binds
binding (MBP-4x1mer[260:] (human) [3]): binds

B3: MBP-2x1mer[260:] (domain or fragment, UniProt Q96Q06 260-292; Q96Q06 260-292)
chain: SKTVLTGTKDTVCSGVTGAMNVAKGTIQTGVDTSKTVLTGTKDTVCSGVTGAMNVAKGTIQTGVDT
binding (MBP-2x1mer[260:] (human)): no binding

More lines, now with the values ahead:

binding (1mer[755:] (human)): no binding (tested: 1 mg/ml)
Binder: TKSVLTGTKDAVSTGLTGAVKLAKGTVQTGMDT (peptide, UniProt Q96Q06 755-787) [1mer[755:]]

binding (1mer[656:] (human)): binds
Binder: TQNIATGTKNTFGSGVTSAVNVAKGAAQTGVDT (peptide, UniProt Q96Q06 656-688) [1mer[656:]]

binding (MBP-3x1mer[260:] (human)): no binding
B2: MBP-3x1mer[260:] (domain or fragment, UniProt Q96Q06 260-292; Q96Q06 260-292; Q96Q06 260-292)
chain: SKTVLTGTKDTVCSGVTGAMNVAKGTIQTGVDTSKTVLTGTKDTVCSGVTGAMNVAKGTIQTGVDTSKTVLTGTKDTVCSGVTGAMNVAKGTIQTGVDT
